According to US20140105903A1 (Harvard, published 2014):
These are yes or no findings as the source states them, for the method shown. In cells and extracts the contact can be indirect. Some results given as binding are weak or reduced against the parent protein; the word gives no strength.

Amino acid sequences for entries named in this document (tags omitted). A change or cut given only in a name is not applied to a line headed by its entry.
UniProt O15031: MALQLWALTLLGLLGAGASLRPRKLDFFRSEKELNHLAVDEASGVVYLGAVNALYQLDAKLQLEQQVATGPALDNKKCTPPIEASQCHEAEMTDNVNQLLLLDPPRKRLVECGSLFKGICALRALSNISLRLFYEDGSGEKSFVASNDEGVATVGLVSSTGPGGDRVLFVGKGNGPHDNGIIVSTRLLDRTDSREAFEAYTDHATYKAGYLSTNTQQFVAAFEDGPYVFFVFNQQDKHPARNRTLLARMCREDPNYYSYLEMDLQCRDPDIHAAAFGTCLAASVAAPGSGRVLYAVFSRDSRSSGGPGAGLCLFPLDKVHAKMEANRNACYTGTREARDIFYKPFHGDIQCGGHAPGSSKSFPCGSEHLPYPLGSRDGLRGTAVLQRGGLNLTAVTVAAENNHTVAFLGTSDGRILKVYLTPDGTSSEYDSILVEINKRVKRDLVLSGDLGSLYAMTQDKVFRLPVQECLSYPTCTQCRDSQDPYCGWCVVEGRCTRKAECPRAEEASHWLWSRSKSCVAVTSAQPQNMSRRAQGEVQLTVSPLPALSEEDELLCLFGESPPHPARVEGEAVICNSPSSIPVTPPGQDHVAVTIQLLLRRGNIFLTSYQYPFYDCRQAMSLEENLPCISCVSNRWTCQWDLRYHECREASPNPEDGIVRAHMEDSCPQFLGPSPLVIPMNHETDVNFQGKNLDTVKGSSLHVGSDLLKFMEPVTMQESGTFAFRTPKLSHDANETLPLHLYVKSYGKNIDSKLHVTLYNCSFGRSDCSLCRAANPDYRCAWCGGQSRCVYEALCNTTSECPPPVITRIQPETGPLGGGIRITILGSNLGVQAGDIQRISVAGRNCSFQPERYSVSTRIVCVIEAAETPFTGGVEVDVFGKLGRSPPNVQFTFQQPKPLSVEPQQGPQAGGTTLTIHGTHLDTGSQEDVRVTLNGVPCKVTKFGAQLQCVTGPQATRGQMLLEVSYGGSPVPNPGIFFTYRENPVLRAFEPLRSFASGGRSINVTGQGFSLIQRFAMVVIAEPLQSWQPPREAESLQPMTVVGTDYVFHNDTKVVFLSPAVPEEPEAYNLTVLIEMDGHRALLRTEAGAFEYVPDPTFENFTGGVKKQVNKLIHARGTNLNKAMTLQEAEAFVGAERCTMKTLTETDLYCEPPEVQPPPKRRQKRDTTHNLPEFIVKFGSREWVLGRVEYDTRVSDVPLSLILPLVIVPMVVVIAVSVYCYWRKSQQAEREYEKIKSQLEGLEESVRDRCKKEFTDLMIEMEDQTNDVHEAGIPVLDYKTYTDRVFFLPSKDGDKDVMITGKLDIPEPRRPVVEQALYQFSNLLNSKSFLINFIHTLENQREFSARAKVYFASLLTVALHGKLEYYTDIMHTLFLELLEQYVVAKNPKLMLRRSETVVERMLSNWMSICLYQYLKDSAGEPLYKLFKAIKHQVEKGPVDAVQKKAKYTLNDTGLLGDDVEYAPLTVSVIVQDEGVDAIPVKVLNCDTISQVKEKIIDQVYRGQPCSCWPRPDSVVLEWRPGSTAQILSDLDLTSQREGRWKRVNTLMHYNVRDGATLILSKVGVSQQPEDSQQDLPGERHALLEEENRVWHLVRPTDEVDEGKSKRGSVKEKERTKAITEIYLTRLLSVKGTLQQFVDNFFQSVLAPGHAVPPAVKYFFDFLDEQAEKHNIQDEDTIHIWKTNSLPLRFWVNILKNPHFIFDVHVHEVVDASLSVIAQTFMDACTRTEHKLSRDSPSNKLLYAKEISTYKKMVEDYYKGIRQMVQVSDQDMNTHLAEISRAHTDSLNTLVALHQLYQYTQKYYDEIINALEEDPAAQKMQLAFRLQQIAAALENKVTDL
UniProt P03950: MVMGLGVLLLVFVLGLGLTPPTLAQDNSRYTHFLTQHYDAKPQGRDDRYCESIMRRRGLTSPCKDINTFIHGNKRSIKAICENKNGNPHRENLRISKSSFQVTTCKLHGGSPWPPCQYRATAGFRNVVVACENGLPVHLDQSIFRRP

Biological target: human Plexin B2 (human) (UniProt O15031)
Experiment: co-immunoprecipitation and Western blot, ANG-Flag with solubilised LNCaP plasma membrane fraction

binding: binds
Substance: Flag tagged (C-terminus) ANG (from UniProt P03950 25-147) (ligand)
